Experimental data: patent US20040142875A1 (priority 2003, published 2004)

How the values were obtained:
[1] = general procedure: Fmoc solid-phase peptide synthesis; Fmoc-Rink resin; DIPCDI/HOBt.H2O; conditions: whole synthesis, scale 0.04 mmol, tetra-TFA salt
[2] = general procedure: Fmoc solid-phase peptide synthesis; Fmoc-Rink resin (0.51 mmol/g); DIPCDI/HOBt.H2O; conditions: whole synthesis, di-TFA salt

Substance | isolated mass [1] [mg] | isolated yield [1] [%] | isolated mass [2] [mg] | isolated yield ([2]; scale of the general procedure 0.04 mmol) [%]
BisPy-Amb-Phe-Gly-Leu-Arg-Trp-NH2 | 8.43 | 15 | – | –
Gu-Amb-Phe-Gly-Leu-Arg-Trp-NH2 | – | – | 5.96 | 14
